These results are taken from article PMC6331727.

These are yes or no findings as the source states them, for the method shown. Binding seen in cells or lysates may run through a third protein. Some results given as binding are weak or reduced against the parent protein; the word gives no strength.

Test [1] concerns the target T1, Mouse Prominin-1 (Prom1) (mouse (endogenous in incisor tissue and CLESCs)) (UniProt O54990).
T1 sequence: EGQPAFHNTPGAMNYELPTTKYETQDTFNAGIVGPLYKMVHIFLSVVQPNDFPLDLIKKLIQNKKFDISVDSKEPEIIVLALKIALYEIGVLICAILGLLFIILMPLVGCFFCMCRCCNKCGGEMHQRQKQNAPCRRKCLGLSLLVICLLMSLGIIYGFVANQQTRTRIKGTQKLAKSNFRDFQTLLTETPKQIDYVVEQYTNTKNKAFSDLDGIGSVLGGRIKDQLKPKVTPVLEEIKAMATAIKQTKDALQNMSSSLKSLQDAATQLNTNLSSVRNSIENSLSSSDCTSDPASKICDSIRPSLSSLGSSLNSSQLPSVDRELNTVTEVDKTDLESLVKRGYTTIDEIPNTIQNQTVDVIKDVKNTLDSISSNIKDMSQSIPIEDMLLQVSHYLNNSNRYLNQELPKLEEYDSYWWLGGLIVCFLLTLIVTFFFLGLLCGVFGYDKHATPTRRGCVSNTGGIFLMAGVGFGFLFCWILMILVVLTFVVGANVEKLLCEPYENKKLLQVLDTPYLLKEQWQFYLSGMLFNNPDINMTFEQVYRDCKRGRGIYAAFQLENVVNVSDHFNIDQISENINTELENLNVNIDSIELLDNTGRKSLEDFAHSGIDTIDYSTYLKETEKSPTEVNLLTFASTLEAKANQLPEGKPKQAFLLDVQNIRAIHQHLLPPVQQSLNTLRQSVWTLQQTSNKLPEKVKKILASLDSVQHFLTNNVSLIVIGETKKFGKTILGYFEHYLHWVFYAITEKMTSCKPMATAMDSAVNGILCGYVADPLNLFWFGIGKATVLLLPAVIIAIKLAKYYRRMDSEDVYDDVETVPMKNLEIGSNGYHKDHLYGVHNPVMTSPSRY
Nature of the test: proximity ligation; PLA in cultured CLESCs starved for 4 days, then treated with SHH (100 ng/ml) and importazole (40 uM) or DMSO for the indicated times.

In test [2] the target is T1, Mouse Prominin-1 (Prom1) (mouse (endogenous in incisor tissue and CLESCs)). The test can be described thus: proximity ligation; in situ PLA (Duolink) on sagittal sections of P7 mouse lower incisor CLE; anti-Prom1 conjugated with MINUS probe and anti-Glis2 with PLUS probe, overnight at 4°C.

B1: Mouse Glis2 (protein, UniProt Q8VDL9 1-521)
chain: MHSLDEPLDLKLSITKLRAAREKRERTLGVVRHHALHRELGLVDDSPAPGSPGSPPPGFLLNPKFPEKVDGRFSAAPLVDLSLSPPSGLDSPNGSSSLSPECQGNGDLPPLPTAVDFQPLRYLDGVPSSFQFFLPLGSGGALHLPASSFLPPPKDKCLSPELPLAKQLVCRWAKCNQLFELLQDLVDHVNDHHVKPEQDARYCCHWEGCARHGRGFNARYKMLIHIRTHTNEKPHRCPTCNKSFSRLENLKIHNRSHTGEKPYVCPYEGCNKRYSNSSDRFKHTRTHYVDKPYYCKMPGCHKRYTDPSSLRKHIKAHGHFVSHEQQELLQLRPPPKPPLPTPDSGSYVSGAQIIIPNPAALFGGPSLPGLPLPLPPGPLDLSALACGNGGGGGGGIGPGLPGSVLPLNLAKNPLLPSPFGAGGLGLPVVSLLGGSAGSKAEGEKGRGSVPARVLGLEDHKTPLERTERSRSRPSPDGLPLLPGTVLDLSTGNSAASSPEVLTPGWVVIPPGSVLLKPAVVN
Regarding B1, the binding entry in test [1] and in test [2] was “binds” throughout.
